# Experimental data as given in article PMC10641233, “The C-terminal domain of the antiamyloid chaperone DNAJB6 binds to amyloid-β peptide fibrils and inhibits secondary nucleation” (The Journal of Biological Chemistry, 2023).
# Results are given in words; binding and its absence hold for the method and conditions named. Some results given as binding are weak or reduced against the parent protein; the word gives no strength.
# B1: C-terminal domain (CTD) of DNAJB6 (domain or fragment)
# chain: MNFKSISTSTKMVNGRKITTKRIVENGQERVEVEEDGQLKSLTINGKEQLLRLDNK
# Biological target: C-terminal domain (CTD) of DNAJB6 (human)
# Assay: native MS; non-mixed samples of CTD or CTD STA, 200 mM ammonium acetate pH 6.8, 10-25 µM, nano-electrospray, source temperature 25 °C; both purified
binder,measurement,value
B1,binding,binds weakly
